One compound from US20260076988A1 (The Cleveland Clinic Foundation, priority 2019, published 2026) can be followed below.

The subject of the series is Dck, Uck2, Cda and Cad. In words: F1339 cells: pyrimidine metabolism enzyme expression by QRT-PCR and Western blot. In kind it is cell-based, murine. Here is the method: FIG. 2. […] F1339 p53-null cancer cells were seeded at D0 and treated with DMSO, deoxycytidine (DC, 0.5 μM), cytidine (CY, 5 μM), Dec (0.5 μM) and 5Aza (5 μM). […] Cell counts by automated counter, mean±SD. […] Gene expression by Q-PCR, median±interquartile range (IQR) (3 biological replicates), *p<0.05, **p<0.01. 2-sided Mann-Whitney test. […] Western blot.
RNA was extracted using Trizol reagent (Invitrogen) before the generation of complementary DNA using the iScript™ cDNA Synthesis Kit (Bio-rad). Quantitative PCR was run on StepOnePlus Real-Time PCR System (Applied Biosystems), using comparative Ct value method to quantify the expression of target genes in different samples. Gene expression was normalized to the housekeeping gene β-actin.
Tumor cells were lysed with RIPA lysis buffer and protein concentrations determined by BCA protein assay kit (Thermo Fisher Scientific). Samples with equal quantity (40 μg) of total protein were mixed with 4× loading buffer and 10× sample reducing reagent (Thermo Fisher Scientific), subjected to electrophoresis on a 12% (v/v) SDS-polyacrylamide gel, then transferred onto polyvinylidene fluoride membranes. After blocking with 5% dried skimmed milk, the membranes were washed three times and incubated with primary antibodies at 4° C. overnight. […]
A general note: In western blotting, separated proteins are transferred to a membrane and probed.

Consider `Nc1ncn([C@@H]2O[C@H](CO)[C@@H](O)[C@H]2O)c(=O)n1` [5-azacytidine], for which the “time of peak mRNA expression changes after drug exposure” value was around 72 h and the “time of peak protein level changes after drug exposure” value is around 96 h.
